In patent US4103005A (Hoffmann-La Roche Inc., priority 1977, dated 1978):
Some peptides are written in HELM: one residue between dots, names in brackets for other building blocks, links after the first $.

Assay: general procedure: Boc solid-phase peptide synthesis; Benzhydrylamine resin (0.51 mmole N/g, Beckman); symmetrical anhydride by dicyclohexylcarbodiimide
Conditions: whole synthesis, scale of the general procedure 1.505 g resin, divided in half after Gly

## PEPTIDE1{Y.[dM].G.F.[Thz].[am]}$$$$V2.0
  difficulty met: isolation of the deletion peptide H-Tyr-D-Met-Gly-Thz-NH2 during partition chromatography
